These are yes or no findings as the source states them, for the method shown. In cells and extracts the contact can be indirect. Some results given as binding are weak or reduced against the parent protein; the word gives no strength. For part of these data: Sequences can lack the tags named with a protein.
B1: myc-ASIC1a (receptor, UniProt P78348-2 1-528)
chain: MELKAEEEEVGGVQPVSIQAFASSSTLHGLAHIFSYERLSLKRALWALCFLGSLAVLLCVCTERVQYYFHYHHVTKLDEVAASQLTFPAVTLCNLNEFRFSQVSKNDLYHAGELLALLNNRYEIPDTQMADEKQLEILQDKANFRSFKPKPFNMREFYDRAGHDIRDMLLSCHFRGEVCSAEDFKVVFTRYGKCYTFNSGRDGRPRLKTMKGGTGNGLEIMLDIQQDEYLPVWGETDETSFEAGIKVQIHSQDEPPFIDQLGFGVAPGFQTFVACQEQRLIYLPPPWGTCKAVTMDSDLDFFDSYSITACRIDCETRYLVENCNCRMVHMPGDAPYCTPEQYKECADPALDFLVEKDQEYCVCEMPCNLTRYGKELSMVKIPSKASAKYLAKKFNKSEQYIGENILVLDIFFEVLNYETIEQKKAYEIAGLLGDIGGQMGLFIGASILTVLELFDYAYEVIKHKLCRRGKCQKEAKRSSADKGVALSLDDVKRHNPCESLRGHPAGMTYAANILPHHPARGTFEDFTC
B2: endogenous syntabulin (mouse brain homogenate) (protein, UniProt Q8BHS8 1-665)
chain: MGPLRESKKEQRVQHQEKEISRSRIPRLILRPHRPQQQQQQQNKVSPASESPFSEEESREFNPSSSGRSARTISSNSFCSDDTGCPSSQSVSPVKTPSDTGHSPIGFCPGSDEDFTRKKCRIGMVGEGSIQSARHKKEPKGGIIKPGSEADFSSSSSTGSISAPEVHMSTTGNKRASFSRNRGPHGRSNGASSHKSGSSPPSPREKDLVSMLCRNPLSPSNIHPSYAPSSPSSSNSGSYKGSDCSPVMRRSGRYMSCGENHGVKPPNPEQYLTPLQQKEVTVRHLRTKLKESERRLHERESEIMELKSQLARMREDWIEEECHRVEAQLALKEARKEIKQLKQVIETMRSSLADKDKGIQKYFVDINIQNKKLESLLQSMEMAHNSSLRDELCLDFSFDSPEKSLPLSSTFDKLPDGLSLEEQITEEGADSELLVGDSMAEGTDLLDEMVTATTTESSGLEFVHSTPGPQALKALPLVSHEEGIAVMEQAVQTDVVPFSPAISELIQSVLKLQDYCPTSSASPDESGADSMESFSESISALMLDLTPRSPNSAILLSPVEIPFSKGAMEAHANRLMRELDFAAYTEERLDSVLSLSQGSVVRQYWSSNFLVDLLAVAAPVVPTVLWAFSTQRGGTDPVYNIGALLRGCCVVALHSLRRTAFHMKT

Amino acid sequences for entries named in this document (tags omitted).
UniProt Q9EP80: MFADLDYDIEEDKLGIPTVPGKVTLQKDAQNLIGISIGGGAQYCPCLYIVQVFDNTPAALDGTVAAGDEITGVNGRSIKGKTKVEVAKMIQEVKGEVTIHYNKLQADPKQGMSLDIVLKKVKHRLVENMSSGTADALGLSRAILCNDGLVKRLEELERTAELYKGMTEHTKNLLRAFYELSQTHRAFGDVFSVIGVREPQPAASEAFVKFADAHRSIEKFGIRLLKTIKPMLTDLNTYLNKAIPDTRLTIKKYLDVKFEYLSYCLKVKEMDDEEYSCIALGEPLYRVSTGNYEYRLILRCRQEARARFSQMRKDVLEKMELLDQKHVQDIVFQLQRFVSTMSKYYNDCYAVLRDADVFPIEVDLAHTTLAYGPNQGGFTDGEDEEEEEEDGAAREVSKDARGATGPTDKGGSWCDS
UniProt Q62083: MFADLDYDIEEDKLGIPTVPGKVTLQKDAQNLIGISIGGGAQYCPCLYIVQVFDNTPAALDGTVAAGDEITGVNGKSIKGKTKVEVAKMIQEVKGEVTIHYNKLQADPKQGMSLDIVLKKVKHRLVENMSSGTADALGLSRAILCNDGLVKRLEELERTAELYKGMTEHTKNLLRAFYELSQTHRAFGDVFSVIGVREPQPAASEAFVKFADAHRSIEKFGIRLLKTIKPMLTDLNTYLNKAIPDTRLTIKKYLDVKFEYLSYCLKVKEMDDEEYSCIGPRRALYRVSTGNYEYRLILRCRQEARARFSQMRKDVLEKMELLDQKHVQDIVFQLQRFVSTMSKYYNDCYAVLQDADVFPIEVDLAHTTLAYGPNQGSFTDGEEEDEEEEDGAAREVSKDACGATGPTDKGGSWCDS

Key:
[1] = biological target: myc-PICK1 (rat) (UniProt Q9EP80); assay: co-IP; HEK293T cells transfected with GFP-Syntabulin and myc-ASIC2a or myc-ASIC1a together with myc-PICK1; immunoprecipitated with GFP antibody
[2] = biological target: endogenous PICK1 (mouse brain homogenate) (mouse (endogenous in mouse brain)) (UniProt Q62083); assay: co-IP; endogenous proteins, mouse brain homogenate, with syntabulin or PICK1 antibodies

| Molecule | binding [1] | binding [2] |
| --- | --- | --- |
| myc-ASIC2a (from UniProt Q16515-1 1-512) (receptor) | binds | – |
| B1 | binds | – |
| B2 | – | no binding |

— publication PMC4751430
